Results taken from US6914048B2, “Method for delivery of molecules to intracellular targets” (Wisconsin Alumni Research Foundation, priority 2001, dated 2005).
At least one structure is not confirmed: it was looked up by name or label, or the drawing left a doubt.

System: HeLa cells
Test: Cell membrane transit of fluorescein-labelled peptides in HeLa cells by fluorescence (confocal) microscopy
Format: cell-based, human
Conditions: treatment with up to 1 μM, FIG. 3

## O=C1OC2(c3ccc(O)cc3Oc3cc(O)ccc32)c2ccccc21 [fluorescein]
  cell penetration: did not enter the cells
